Laboratory results as given in article PMC4728560, “TCTP contains a BH3-like domain, which instead of inhibiting, activates Bcl-xL” (Scientific Reports, 2016).
Residue numbers refer to the chain shown, from its start. In names and notes the source's numbering stands. These are yes or no findings as the source states them, for the method shown. Binding seen in cells or lysates may run through a third protein. Some entries that bind do so weakly or less than the wild type. Sequences can lack the tags named with a protein.

Protein sequences, listed by entry. Tags and fused reporters are not part of them.
UniProt Q07817: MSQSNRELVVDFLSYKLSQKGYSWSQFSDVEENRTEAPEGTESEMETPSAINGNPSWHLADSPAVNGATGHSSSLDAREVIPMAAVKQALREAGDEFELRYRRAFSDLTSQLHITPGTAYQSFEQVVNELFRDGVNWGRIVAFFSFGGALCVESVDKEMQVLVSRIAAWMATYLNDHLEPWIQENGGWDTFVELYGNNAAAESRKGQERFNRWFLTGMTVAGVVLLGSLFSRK
UniProt Q07812: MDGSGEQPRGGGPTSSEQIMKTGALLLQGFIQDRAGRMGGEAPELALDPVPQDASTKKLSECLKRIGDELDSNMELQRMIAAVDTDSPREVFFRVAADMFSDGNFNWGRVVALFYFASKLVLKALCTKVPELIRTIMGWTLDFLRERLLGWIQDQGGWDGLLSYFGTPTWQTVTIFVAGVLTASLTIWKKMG

Legend:
Assay in all cases: FRET or BRET; BRET in transiently transfected cells; Luciferase-fused TCTP as donor, increasing levels of YFP-fused acceptor; also with ABT-737 treatment of the cells (signals significantly inhibited)
[1] = biological target: YFP-fused Bcl-xL (BRET acceptor) (human), Q07817; details: remark: other sources report otherwise
[2] = biological target: YFP-fused BAX (BRET acceptor) (UniProt Q07812)
[3] = biological target: YFP-fused Bcl-xL (BRET acceptor) (human) (UniProt Q07817)

B1: Luciferase-fused TCTP (BRET donor), P13693 1-172 (protein)
chain: MIIYRDLISHDEMFSDIYKIREIADGLCLEVEGKMVSRTEGNIDDSLIGGNASAEGPEGEGTESTVITGVDIVMNHHLQETSFTKEAYKKYIKDYMKSIKGKLEEQRPERVKPFMTGAAEQIKHILANFKNYQFFIGENMNPDGMVALLDYREDGVTPYMIFFKDGLEMEKC
Q: With B1 as the binder, how does the binding [1] read?
A: binds

B2: Luciferase-fused TCTP (BRET donor) (protein, UniProt P13693 1-172)
chain: B1 chain
Q: For B2, which binding [2] is on record?
A: no binding

B3: Luciferase-fused TCTP R21A (BRET donor) (protein, UniProt P13693 1-172)
chain: B1 chain with R21A
Q: How did the binding [3] turn out when B3 was run?
A: no binding
